Test results published in patent US6015881 (dated 2000).

Experiment: general procedure: hybrid (solid and solution phase) peptide synthesis; 2-chlorotrityl chloride resin (super acid sensitive); HBTU/HOBT/DIEA (solid phase); HBTU/HOAT/EtPr2N (solution phase)

| Substance | step yield (late stage modification step) [%] | crude HPLC purity (late stage modification step) [%] | step yield (coupling step) [%] | final HPLC purity (coupling step) | crude HPLC purity (coupling step) [A %] |
| --- | --- | --- | --- | --- | --- |
| H-Asp(tBu)-Lys(Boc)-Trp(Boc)-Ala-Ser(tBu)-Leu-Trp(Boc)-Asn(trt)-Trp(Boc)-NH2 | 89.6 | 95 | – | – | – |
| Fmoc-Ile-Glu(OtBu)-Glu(OtBu)-Ser(tBu)-Gln(trt)-Asn(trt)-Gln(trt)-Gln-OPNB | – | – | 100 | 91-94% | – |
| Fmoc-Glu(OtBu)-Lys(Boc)-Asn(trt)-Glu(OtBu)-Gln(trt)- Glu(OtBu)-Leu-Leu-Glu(OtBu)-Leu-Asp(tBu)-Lys(Boc)-Trp(Boc)-Ala-Ser(tBu)-Leu-Trp(Boc)-Asn(trt)-Trp(Boc)-Phe-NH2 | – | – | 90 | 95.5 A % | – |
| Fmoc-Asp(tBu)-Lys(Boc)-Trp(Boc)-Ala-Ser(tBu)-Leu-Trp(Boc)-Asn(trt)-Trp(Boc)-Phe-NH2 | – | – | 100 | – | 93 |
| Fmoc-Tyr(tBu)-Thr(tBu)-Ser(tBu)-Leu-Ile-His(trt)-Ser(tBu)-Leu-Ile-Glu(OtBu)-Glu(OtBu)-Ser(tBu)-Gln(trt)-Asn(trt)-Gln(trt)-Gln-OPNB | – | – | 92 | 90 A % | – |
